Assay results taken from patent US11104670B2, “4-pyrimidin-5-ylmethyl-morpholine derivatives and the use thereof as medicament” (Boehringer Ingelheim International GmbH, priority 2018, dated 2021).
At least one compound was matched to its structure with a doubt left.

Chains of the proteins cited; added tags and fusions are not shown.
UniProt Q9UQD0, whole entry: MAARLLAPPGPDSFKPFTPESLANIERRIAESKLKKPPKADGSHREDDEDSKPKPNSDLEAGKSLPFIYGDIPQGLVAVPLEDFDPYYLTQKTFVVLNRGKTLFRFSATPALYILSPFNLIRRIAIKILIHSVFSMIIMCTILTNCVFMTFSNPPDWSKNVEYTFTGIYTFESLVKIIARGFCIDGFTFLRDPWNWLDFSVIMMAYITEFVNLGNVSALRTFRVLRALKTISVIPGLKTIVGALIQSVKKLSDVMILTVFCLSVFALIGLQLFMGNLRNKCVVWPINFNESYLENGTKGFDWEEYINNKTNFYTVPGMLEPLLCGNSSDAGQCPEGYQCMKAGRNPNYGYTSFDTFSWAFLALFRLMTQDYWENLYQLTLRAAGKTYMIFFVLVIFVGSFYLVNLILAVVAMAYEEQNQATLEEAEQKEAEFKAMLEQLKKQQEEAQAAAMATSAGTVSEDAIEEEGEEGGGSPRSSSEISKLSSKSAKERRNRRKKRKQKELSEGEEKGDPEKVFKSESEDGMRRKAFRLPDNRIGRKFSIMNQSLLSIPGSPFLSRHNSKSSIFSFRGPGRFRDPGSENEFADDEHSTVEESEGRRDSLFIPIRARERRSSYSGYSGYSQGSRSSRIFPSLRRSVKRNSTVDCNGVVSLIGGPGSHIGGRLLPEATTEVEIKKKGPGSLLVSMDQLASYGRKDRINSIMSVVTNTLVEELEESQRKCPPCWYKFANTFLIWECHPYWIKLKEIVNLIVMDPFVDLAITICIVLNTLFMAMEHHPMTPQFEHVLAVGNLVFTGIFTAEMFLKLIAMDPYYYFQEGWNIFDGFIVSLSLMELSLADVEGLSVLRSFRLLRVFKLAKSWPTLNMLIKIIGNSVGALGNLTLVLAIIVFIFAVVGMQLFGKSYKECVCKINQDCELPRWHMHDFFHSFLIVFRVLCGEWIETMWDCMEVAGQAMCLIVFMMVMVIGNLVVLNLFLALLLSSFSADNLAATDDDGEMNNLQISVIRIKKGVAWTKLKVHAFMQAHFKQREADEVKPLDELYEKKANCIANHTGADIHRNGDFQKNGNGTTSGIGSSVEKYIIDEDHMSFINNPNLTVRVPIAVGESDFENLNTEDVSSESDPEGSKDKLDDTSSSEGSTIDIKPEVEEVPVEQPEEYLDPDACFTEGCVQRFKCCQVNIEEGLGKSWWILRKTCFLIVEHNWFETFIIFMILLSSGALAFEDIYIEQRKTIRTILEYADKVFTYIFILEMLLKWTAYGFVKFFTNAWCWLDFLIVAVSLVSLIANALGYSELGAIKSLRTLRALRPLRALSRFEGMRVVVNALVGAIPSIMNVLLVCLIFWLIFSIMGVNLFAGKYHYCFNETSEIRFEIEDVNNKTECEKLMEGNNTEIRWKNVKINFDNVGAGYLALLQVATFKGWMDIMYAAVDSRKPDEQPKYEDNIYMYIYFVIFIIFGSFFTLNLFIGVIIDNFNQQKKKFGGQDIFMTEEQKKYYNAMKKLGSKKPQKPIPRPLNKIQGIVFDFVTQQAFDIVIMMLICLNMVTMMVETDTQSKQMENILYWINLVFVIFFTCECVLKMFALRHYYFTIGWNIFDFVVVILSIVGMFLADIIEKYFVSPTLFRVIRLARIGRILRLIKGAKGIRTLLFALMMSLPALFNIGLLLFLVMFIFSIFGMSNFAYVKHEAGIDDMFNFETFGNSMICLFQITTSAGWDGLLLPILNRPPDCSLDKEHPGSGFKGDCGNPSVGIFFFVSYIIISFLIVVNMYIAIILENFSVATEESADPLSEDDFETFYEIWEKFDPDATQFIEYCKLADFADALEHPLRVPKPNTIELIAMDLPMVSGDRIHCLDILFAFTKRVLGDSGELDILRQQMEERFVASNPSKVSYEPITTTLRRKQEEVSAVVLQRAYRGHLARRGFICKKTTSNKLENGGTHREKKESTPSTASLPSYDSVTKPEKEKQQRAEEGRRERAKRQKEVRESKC

Legend:
[1] = target: T1, Nav1.6 (Homo sapiens (Human), UniProt Q9UQD0); experiment: Nav1.6 inhibition, IonWorks Quattro electrophysiology; type: cell-based
Experimental: Ion Works Quattro electrophysiological platform
The compounds were prepared in DMSO at 300× the final assay concentrations of 1 and 5 μM.
The 300× DMSO stock solutions were transferred into assay plates where 2 μl per well of each 300× stock solution were placed. All assay plates were stored at −80° C. until the day of assay.
On the day of the assay, the appropriate assay plate was thawed at room temperature, centrifuged, and 198 μl of external recording solution was added and mixed thoroughly. This provided a 1:100 dilution. A further 1:3 dilution occurred upon addition to the cells in the IonWorks Quattro electrophysiological platform, giving a 1:300 dilution in total.
On each assay plate, at least 8 wells were reserved for vehicle control (0.3% DMSO) and at least 8 wells for each positive control specific to the cell line tested. The positive controls were tested at a maximal blocking and an approximate IC50 concentration. As positive control Lidocaine at concentrations of 30 and 1000 μM was used.
Amphotericin B was used to obtain electrical access to the cell interior at a final concentration of 200 μg/ml in internal recording solution.
State-dependent inhibition: Sodium channels when held at depolarized potential or long test pulse, the channels open and inactivate and then stay inactivated until the membrane potential is stepped back to hyperpolarized potentials, when the inactivated channels recover from inactivation into closed state.
Cells were held at −120 mV. In order to completely inactivate the sodium channels (pulse 1), the cells were pulsed to +0 mV for 2500 ms and stepped back to −120 mV for 10 ms (to completely recover from inactivation, however channels that had drugs bound to them will not recover from inactivation) before stepping to +0 mV for 20 ms (pulse 2).
Both the positive and vehicle control data associated with each cell line assayed are shown below as an example. The mean is shown for each positive and negative control as solid symbol with the total number of individual well replicates given next to the solid symbol. In addition, the individual data of each well are shown on the graph as open symbols so that the variation about the mean value can be readily assessed.
In FIG. 2, a Post/Pre value of 1.0 corresponds to 0% inhibition, a Post/Pre value of 0.0 corresponds to 100% inhibition.
Tables 3 and 4 show the normalized percentage inhibition of Nav1.6 channel. […] (see also the figure Assay Control Results above).

[2] = target: T1, Nav1.6; settings: reported in WO2015/130905; cited from earlier work

## CCNC(=O)C1CN(Cc2cccc(Oc3ccccc3)c2)CCO1 (stereo not shown) [Example 100, reference compound]
[1]; at 5 μM
  inhibition of the Nav 1.6 channel (in words): inhibit
[2]
  Nav 1.6 blockage: 1 to 5 µM

## O=C(NCc1ccccn1)C1CN(Cc2cccc(Oc3ccccc3)c2)CCO1 (stereo not shown) [Example 105, reference compound]
[1]; at 5 μM
  inhibition of the Nav 1.6 channel (in words): inhibit
[2]
  Nav 1.6 blockage: 1 to 5 µM

## O=C(C1CN(Cc2cccc(Oc3ccccc3)c2)CCO1)N1CCOCC1 (stereo not shown) [Example 106, reference compound]
[1]; at 5 μM
  inhibition of the Nav 1.6 channel (in words): not showing any significant inhibition
[1]; at 1 and 5 μM
  inhibition of the Nav 1.6 channel (in words): do not show any significant inhibition
[2]
  Nav 1.6 blockage: > 5 µM
